Reference: article PMC12432130
No constants are given. Whether binding was seen depends on the method and setting. In cells and extracts the contact can be indirect. Some binding calls cover weakened binding; strength is not graded here. Where a sequence is shown, tags or fusion partners need not be part of it.

Target: T1, Flag-tagged TTK protein kinase (UniProt P33981)
T1 sequence: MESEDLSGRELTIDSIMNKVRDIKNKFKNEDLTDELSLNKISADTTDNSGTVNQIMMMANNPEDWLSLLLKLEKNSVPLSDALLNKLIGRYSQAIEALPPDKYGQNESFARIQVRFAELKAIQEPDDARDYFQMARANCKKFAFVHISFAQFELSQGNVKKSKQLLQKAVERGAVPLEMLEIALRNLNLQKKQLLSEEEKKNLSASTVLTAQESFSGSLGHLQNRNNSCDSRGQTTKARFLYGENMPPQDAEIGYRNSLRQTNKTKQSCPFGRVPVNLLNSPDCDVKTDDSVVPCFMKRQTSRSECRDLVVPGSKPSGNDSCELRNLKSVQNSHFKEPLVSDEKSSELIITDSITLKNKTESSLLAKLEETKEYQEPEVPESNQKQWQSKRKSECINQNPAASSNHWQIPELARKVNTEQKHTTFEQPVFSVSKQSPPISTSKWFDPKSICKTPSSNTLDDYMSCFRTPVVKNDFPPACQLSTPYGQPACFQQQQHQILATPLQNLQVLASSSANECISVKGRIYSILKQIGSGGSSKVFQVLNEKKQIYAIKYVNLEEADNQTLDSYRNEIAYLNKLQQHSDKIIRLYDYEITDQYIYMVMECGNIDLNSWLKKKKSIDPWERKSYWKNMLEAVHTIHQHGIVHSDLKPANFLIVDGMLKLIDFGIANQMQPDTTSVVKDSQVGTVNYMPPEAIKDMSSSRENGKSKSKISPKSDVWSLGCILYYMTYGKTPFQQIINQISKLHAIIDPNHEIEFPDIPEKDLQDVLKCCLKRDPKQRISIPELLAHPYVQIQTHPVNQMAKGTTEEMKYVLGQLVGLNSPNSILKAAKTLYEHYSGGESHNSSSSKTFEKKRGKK
Assay: co-IP; Flag-TTK immunoprecipitated from RT-112 and UM-UC-3 cells with an anti-Flag monoclonal antibody; IgG control; partner detected by Western blot with its own antibody

binding: binds
B1: SRSF3 (protein, UniProt P84103 1-164)
chain: MHRDSCPLDCKVYVGNLGNNGNKTELERAFGYYGPLRSVWVARNPPGFAFVEFEDPRDAADAVRELDGRTLCGCRVRVELSNGEKRSRNRGPPPSWGRRPRDDYRRRSPPPRRRSPRRRSFSRSRSRSLSRDRRRERSLSRERNHKPSRSFSRSRSRSRSNERK
